Reference: US5773411A, “Cyclic compounds linked by a heterocyclic ring useful as inhibitors of platelet glycoprotein IIB/IIIA” (The DuPont Merck Pharmaceutical Company, priority 1994, dated 1998)
Not every detail of the peptide structures is certain; ends, links or a residue may be inferred.

Test system: agonist-induced platelet aggregation in platelet-rich plasma (PRP)
Experiment: Platelet Aggregation Assay
Assay type: cell-based
Conditions: human PRP; agonists ADP, collagen, arachidonate, epinephrine, thrombin; compound added prior to activation of the platelets
Protocol: Platelet Aggregation Assay
Venous blood was obtained from the arm of a healthy human donor who was drug-free and aspirin-free for at least two weeks prior to blood collection. Blood was collected into 10 ml citrated Vacutainer tubes. The blood was centrifuged for 15 minutes at 150×g at room temperature, and platelet-rich plasma (PRP) was removed. The remaining blood was centrifuged for 15 minutes at 1500×g at room temperature, and platelet-poor plasma (PPP) was removed. Samples were assayed on a aggregometer (PAP-4 Platelet Aggregation Profiler), using PPP as the blank (100% transmittance). 200 μl of PRP was added to each micro test tube, and transmittance was set to 0%. 20 μl of various agonists (ADP, collagen, arachidonate, epinephrine, thrombin) were added to each tube, and the aggregation profiles were plotted (% transmittance versus time). The results were expressed as % inhibition of agonist-induced platelet aggregation. For the IC50 evaluation, the test compounds were added at various concentrations prior to the activation of the platelets.

For `CC(C)[C@H]1NC(=O)C2=CC=C(CNC(=O)[C@H](CC(=O)O)NC(=O)CNC(=O)[C@H](CCCNC(=N)N)N(C)C1=O)S2` [Example 2, cyclo-(D-Val-N(Me)Arg-Gly-Asp-[5-aminomethyl]-2-thiophenecarboxylate)], the IC50 was < 1000 nM.
